For 104 sequences, z-score results are on record in PubChem BioAssay AID1347423 (Functional Genomics Laboratory (NCATS/FGL), 2020).

The whole screen tested about 52,000 sequences, of which about 210 (0.4%) were called active.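 How the source made its calls: active means gene whose silencing raises cell survival under the drug, median off-target-corrected z-score across its silencing RNAs 2 or more; inactive means the rest.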 The list shows a part of the results.

The nature of this assay: Resistance to Poly (ADP-Ribose) Polymerase inhibitor: Gene Identification via Genome-wide siRNA Screen. Conditions: mouse BRCA2 R2336H ES cells, olaparib, CellTiter-Glo viability; stronger effect = higher value. In outline:
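Mouse BRCA2 R2336H ES cells were reverse-transfected with siRNA (20 nM final), treated at 48 h with 500 nM olaparib, and read by CellTiter-Glo after 72 h. Scores: MAD-based z per siRNA, median per gene, seed off-target correction.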
On to “UGACUUGUGAGAUUGAUCGTT against 1810014F10Rik”, for which the z-score was inactive: 1.23.

In the case of GGAAGACUACAUAAGAGACTT against Cxcl9, the z-score was inactive: -0.461.

Consider CCCACAAAUUAAAGUCCGCTT against Cldn16, for which the z-score is inactive: 0.51.

Regarding CCAAGACUCUUUAUUCAACTT against Rasip1, the z-score is inactive: 1.81.

For the sequence GGACGAGAAGAUUGUCUGCTT against Pamci, the z-score was inactive: -1.01.

For GGGCACUGACAAACGUAUUTT against Olfr433, the z-score is inactive: -0.192.

With GGUGGAAUUGGAAUCACCUTT against Wrb, the z-score is inactive: -0.954.

With GCAGUGUAUAGGUGUACAATT against Krt2-17, the z-score was inactive: -2.07.

Take GGUUGUAGAUAUUUCAGACTT against Birc4: the z-score was inactive: 0.695.

As for GGGACAAAAACACAUGUACTT against Kif5c, the z-score was inactive: -0.451.

Take “GGAAAGGACGACAUACAGGTT against C530015C18”: the z-score is inactive: 1.84.

As to CCAUGCAAGAAUUAAAGCCTT against Anxa11, the z-score is inactive: 0.932.

As for GCUUCCAUAUCUUUCAUAGTT against Olfr987, the z-score was inactive: -0.923.

Take “GGAGUUCAGCAACCUGUUGTT against 1810014L12Rik”: the z-score was inactive: -1.7.

With GGGAAUUCUUUGUUAAUGATT against Ceacam9, the z-score was inactive: -0.309.

As to GGUGCUGACAUCCUCUUUUTT against Chd9, the z-score is inactive: -2.18.

Consider GGGCAACUAUAGAAUAGUGTT against Asb2, for which the z-score is inactive: -0.597.

For GCUAGAGACGAGAAGAUGATT against AI604832, the z-score was inactive: 0.38.

Turning to GGAGAGCAGAUGUGAUUCUTT against Ftsj2, the z-score is inactive: -0.33.

Turning to GCUGACAAAGUGGUUUCUUTT against Olfr733, the z-score is inactive: -0.21.

With “CCACCAUCAAAUAUAACUATT against 9930021J03Rik”, the z-score is inactive: 0.126.

Consider GGAACAUAUUAUCUCGGAGTT against Cit, for which the z-score was inactive: 0.248.

With GGCGCGGCUGAAAUUUGAATT against Casc1, the z-score is inactive: -0.397.

For the sequence GCGAUCAGCAAGCUAAGCCTT against Mettl2, the z-score was inactive: 0.265.

Regarding CCUCUCAUGUGUGCCUAUATT against Pitpnm1, the z-score is inactive: -0.634.

Consider CCAUUUAUUUGGACUUGUATT against Lig4, for which the z-score is inactive: -1.06.

For the sequence CCAAGUUUCAGAAGGAUUATT against Niban, the z-score was inactive: 2.46.

For GGUCAUCAGAAGAAUCAAGTT against Arr3, the z-score was inactive: -0.0927.

In the case of GGUGGUAGAUGCGGAUGUGTT against Kif3b, the z-score was inactive: 1.05.

Take CCUAAAGGGUUUAUAUGCATT against Slc26a3: the z-score is inactive: -0.415.

For the sequence GGGCGUGGUCAACUUCAAATT against Man1c1, the z-score is inactive: -0.476.

Turning to GGCUUCAUUCGUAGGCCAUTT against Smcr8, the z-score was inactive: 0.111.

Regarding GGAGCACAAGAAGGAUAAGTT against Top1, the z-score was inactive: 0.814.

Consider “GCCAUGCUAGUCUUAGAAATT against A130081B01”, for which the z-score was inactive: -1.48.

Consider “GGCAAAACAUGCUUGGACCTT against 4931408L03Rik”, for which the z-score is inactive: 1.57.

Take GCUUGGUUGGAUCCUGAUUTT against Polr2g: the z-score was inactive: -3.12.

On to GCACAUCAACAUUGAUACUTT against Atp11c, for which the z-score was inactive: 0.104.

On to GGCAGAUGUAUGAAAUCUUTT against Fancc, for which the z-score was inactive: 1.37.

Regarding CGAAUGAAGCUGACAUUGGTT against Ssx9, the z-score was inactive: 0.944.

As to GCUUCUGUUAUGAGGCUCATT against Hif1a, the z-score is inactive: -1.01.

In the case of GCUCGAACUGUGUUCUAACTT against Polr3b, the z-score was inactive: 0.387.

For the sequence CCGCUACCAACAGAGCAAATT against Trim9, the z-score is inactive: 2.09.

Take GGUAGCUUAGAGGACUAACTT against Cidec: the z-score is inactive: 1.46.

In the case of “GGAAACCUACUGUUGCACUTT against 5430401O09Rik”, the z-score was inactive: -0.0355.

For the sequence GGGAUCAAUUUUGAAGAAUTT against AU020939, the z-score is inactive: -1.49.

Turning to GGUGAAAAGCAAUCCUCAGTT against Mpn, the z-score was inactive: -1.39.

With CCGGACCUCUGCGCAAUUUTT against Npb, the z-score is inactive: -1.62.

Turning to GGCCCAAUGAUUACAACAUTT against V1re7, the z-score is inactive: 0.0366.

On to GCAGCAACAUUCUUUGGAUTT against Adk, for which the z-score is inactive: 1.08.

With “AAUGGCAUAGGUCCUAUUATT against D9Ertd402e”, the z-score was inactive: -0.666.

Regarding GCCAAAUAUUAUUCCUACATT against Sec63, the z-score is inactive: -1.36.

In the case of GAAGUGAAGAAAGUCAUCATT against Olfr1506, the z-score is inactive: -0.618.

Regarding “GGAGAAUGACUAGGUAAUCTT against A130010J15Rik”, the z-score was inactive: -1.41.

On to GGGCACUUAUGCAAGCAAATT against Pcyt1b, for which the z-score was inactive: 0.56.

With “CCAAAUGUAACUGGUGUAATT against 2810003C17Rik”, the z-score is inactive: 0.768.

Take GGGUCAUAAAAGUUGUUCUTT against Mtmr4: the z-score was inactive: -0.381.

As to GGUCCUCAUCUGGAACCUGTT against Coro2b, the z-score is inactive: 0.537.

For the sequence GGCACAAGAGCAAAGGCUUTT against Gmppb, the z-score was inactive: -2.01.

As to GGACAAGUAUGUCACAGCGTT against Kcnh2, the z-score was inactive: 0.175.

“GGAAAAUGAGCUGAGGAAATT against 5430425K04Rik”: the z-score is inactive: 0.212.

Turning to “GGAAUUUCGACCAUCGUCUTT against 1810017F10Rik”, the z-score is inactive: 0.313.

Consider GGAUACGAUGUGCUAAGGUTT against Rars, for which the z-score is inactive: -2.12.

For the sequence GCAAUUAGGACUUCAAGAGTT against Snx14, the z-score is inactive: 0.225.

On to GCUAUUGGUGCUUUUAUACTT against Olfr1198, for which the z-score was inactive: 0.112.

Consider GGAGAGCCCUAUAGAAGUUTT against Zfp639, for which the z-score was inactive: 0.946.

“GGAAAGCAGGACAAAAGGCTT against 2810422O20Rik”: the z-score was inactive: 2.38.

Take “CCUGCACAGCAAAUACAGUTT against 2610019I03Rik”: the z-score was inactive: -0.21.

With GCCGAGUUAAGUUGACUUUTT against Ptpn12, the z-score was inactive: -0.404.

Take GGAGAUACUGAGUACAUUCTT against Cd38: the z-score was inactive: 0.709.

On to GGCGUAGUACUUCUAAUACTT against Rab12, for which the z-score is inactive: -0.38.

In the case of GCAGCAUUUAGCUAGACAGTT against Agtr1b, the z-score is inactive: -0.525.

As to GGACUCUUUUAUGAGUUUGTT against Lims1, the z-score was inactive: 2.45.

Consider GCUAAACCCAAAAACACAATT against Sim2, for which the z-score was inactive: 0.765.

As to GCCUUCCAUACUUCACUACTT against Gm605, the z-score was inactive: 0.415.

As to GGAAAUGUAGUGAAGGGUGTT against Ndfip2, the z-score is inactive: -0.67.

GGGAAGCUAAUAAAAGCACTT against Rgs20: the z-score was inactive: -0.323.

Turning to GGAUCUAGAUAAAACUCAATT against Epb4.1l3, the z-score is inactive: -1.57.

Consider GCUAUGUGGGUUGUGCUAUTT against Olfr1361, for which the z-score is inactive: -0.987.

Regarding GGUUCAUAGGCAACUUUCUTT against Olfr1294, the z-score was inactive: -1.35.

With GGGCUAUGCAGACCUGUACTT against Cyb561, the z-score was inactive: 1.54.

For CCGUAGAAGGGUUCAACACTT against BC026682, the z-score is inactive: -1.41.

On to “GGACCAAAAUCUAGAAUACTT against 9330199A09Rik”, for which the z-score is inactive: -0.936.

In the case of GGAUGAAUAUGGUGUUUCUTT against Rnf138, the z-score was inactive: -1.

As for “GGAAAAGCUAAUCUUACUATT against D13Wsu177e”, the z-score was inactive: 0.855.

With “GGUCAUAGAUGAGCUUAGUTT against 2900057D21Rik”, the z-score was inactive: -0.721.

For the sequence CCAGGAUCCAAAGAGUAUUTT against Olfr521, the z-score is inactive: 0.0237.

Turning to GGGCAAACGGAGGAAUGAATT against Amac, the z-score is inactive: -1.81.

As for GGAAGAGAAUAAAACCUCATT against Ptpra, the z-score was inactive: -0.25.

Take ACAGGAGUCCAUAGCCGUCTT against Aspscr1: the z-score is inactive: -2.69.

Consider GCCACUUUAGUAUGGAAUGTT against Nxt1, for which the z-score was inactive: -0.362.

Consider “GGCAGAAAAGAGAUGUUCUTT against 1810046J19Rik”, for which the z-score is inactive: -0.982.

For CCUGAAGUGGAGAUUCAACTT against Kcnj6, the z-score was inactive: 0.574.

For the sequence CGCAGGAUUGAGUUAAUUATT against LOC432589, the z-score was inactive: 0.245.

For the sequence GGCAAAGAAUACUAUGUGUTT against Gm1019, the z-score was inactive: -0.666.

As to GCUGAUGGUGUAUAACUCGTT against Gorasp1, the z-score is inactive: 1.45.

Take GCUCAUAUACUCUAAAUUGTT against V1rd1: the z-score was inactive: 0.395.

Take “GGAGAAGUACGUUUAAAUGTT against E430034L04Rik”: the z-score was inactive: 0.715.

As to GGGUAACAUGAAGAUCAAUTT against Rnf19, the z-score is inactive: -1.26.

For CCAUUUAAGGUCAUCUGCATT against Nxph2, the z-score was inactive: -0.64.

As for “GCAGUUGGCAGGCUAAAAATT against 5230400G24Rik”, the z-score is inactive: 0.761.

As to GCACAGAGGAUGUACGUUATT against Cstad, the z-score is inactive: -0.623.

In the case of GGUGCUCACGUUUUUCUUATT against B3galt3, the z-score was inactive: 1.23.

In the case of GGACGUAGAUCAUUUCAAUTT against Afm, the z-score was inactive: -0.896.

As to GGAAAAGAGAAGAAGGCACTT against Taf6, the z-score is inactive: -0.0616.
